Laboratory results: CN114106195A
These are yes or no findings as the source states them, for the method shown. Some results given as binding are weak or reduced against the parent protein; the word gives no strength.

Biological target: T1, B7H3 (on MCF-7 cells) (UniProt Q5ZPR3)
T1 sequence (looked up): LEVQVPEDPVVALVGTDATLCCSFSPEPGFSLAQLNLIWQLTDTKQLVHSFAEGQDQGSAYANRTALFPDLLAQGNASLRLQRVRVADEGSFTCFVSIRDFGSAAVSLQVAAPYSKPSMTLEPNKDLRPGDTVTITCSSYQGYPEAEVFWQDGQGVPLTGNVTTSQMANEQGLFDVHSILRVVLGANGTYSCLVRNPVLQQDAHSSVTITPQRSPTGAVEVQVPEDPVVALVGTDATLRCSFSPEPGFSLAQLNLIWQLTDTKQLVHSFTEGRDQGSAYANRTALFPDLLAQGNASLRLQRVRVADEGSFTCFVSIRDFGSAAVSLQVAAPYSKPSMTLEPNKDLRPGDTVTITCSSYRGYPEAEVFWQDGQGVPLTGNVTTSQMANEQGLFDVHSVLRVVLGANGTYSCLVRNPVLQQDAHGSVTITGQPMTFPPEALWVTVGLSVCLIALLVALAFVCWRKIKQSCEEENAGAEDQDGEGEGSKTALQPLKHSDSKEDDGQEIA
Test: flow cytometry on MCF-7 cells, FITC anti-human IgG F(ab')2

binding: binds
B1: B7H3嵌合抗体 (antibody, human IgG1, kappa, V domains shown)
VH: QVQLQQSGAELVKPGASVKLSCKASGYTFTNYDINWVRQRPEQGLEWIGWIFPGDGSTQYNEKFKGKATLTTDTSSSTAYMQLSRLTSEDSAVYFCARQTTATWFAYWGQGTLVTVSA
VL: DIVMTQSPATLSVTPGDRVSLSCRASQSISDYLHWYQQKSHESPRLLIKYASQSISGIPSRFSGSGSGSDFTLSINSVEPEDVGVYYCQNGHSFPLTFGAGTKLELKR
